## Results of single-concentration screens

Chains of the proteins cited; added tags and fusions are not shown. Residues count along the entry.
UniProt P9WNZ1, whole entry: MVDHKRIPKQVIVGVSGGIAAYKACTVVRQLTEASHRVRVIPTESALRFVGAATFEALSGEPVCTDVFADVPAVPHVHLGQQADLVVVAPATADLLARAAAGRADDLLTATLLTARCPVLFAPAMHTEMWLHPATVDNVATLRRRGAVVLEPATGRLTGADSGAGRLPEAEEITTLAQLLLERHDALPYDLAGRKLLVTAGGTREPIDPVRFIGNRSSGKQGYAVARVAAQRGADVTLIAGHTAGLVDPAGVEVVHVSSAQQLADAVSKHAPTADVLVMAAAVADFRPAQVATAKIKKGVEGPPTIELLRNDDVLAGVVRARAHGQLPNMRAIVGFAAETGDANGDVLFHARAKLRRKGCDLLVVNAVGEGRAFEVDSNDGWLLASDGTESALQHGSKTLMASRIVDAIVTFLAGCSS
UniProt Q4DA54, 1-478: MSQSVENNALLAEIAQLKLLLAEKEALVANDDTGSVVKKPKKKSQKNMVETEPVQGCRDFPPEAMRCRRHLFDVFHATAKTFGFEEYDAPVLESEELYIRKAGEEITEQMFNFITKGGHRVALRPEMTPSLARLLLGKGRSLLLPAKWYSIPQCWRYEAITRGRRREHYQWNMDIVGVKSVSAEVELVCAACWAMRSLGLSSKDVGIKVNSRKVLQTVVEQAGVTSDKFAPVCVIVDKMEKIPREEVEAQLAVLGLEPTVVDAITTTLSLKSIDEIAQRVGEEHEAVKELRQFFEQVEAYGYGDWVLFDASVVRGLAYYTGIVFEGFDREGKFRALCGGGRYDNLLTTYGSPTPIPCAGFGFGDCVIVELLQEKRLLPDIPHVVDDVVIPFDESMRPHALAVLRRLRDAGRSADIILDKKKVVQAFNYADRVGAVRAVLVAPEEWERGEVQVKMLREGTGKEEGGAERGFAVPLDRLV

Measurements from “University of Dundee, Small-Polar-MMV Screening Library” (2021), ChEMBL document CHEMBL3988442.

CoaBC: 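Coenzyme A biosynthesis protein CoaBC, Mycobacterium tuberculosis (UniProt P9WNZ1). Enzyme assay of CoaBC with a phosphate dye (Biomol Green) read at 650 nm. Compounds at 30 µM. Higher reads as stronger inhibition, judged from the few compounds that gave an IC50. Most strong results did not repeat in a second test. Size under these conditions: about 67,000 compounds, about 40 of them at 50% or above in at least one test.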
TcHisRS: 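Histidine-tRNA ligase, Trypanosoma cruzi CL Brener (UniProt Q4DA54). Enzyme assay of histidyl-tRNA synthetase; the read-out is not stated. Tested at 30 µM. The record gives no direction; compounds that gave an IC50 in retests scored well above the rest, so higher reads as stronger inhibition. Of about 69,000 compounds tested this way, about 31 (0.045%) reached 50% or more in at least one test.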

Each number is a percent effect as filed.
The controls that fix the scale are not given in the record; negative values are as filed.
Compounds were drawn at random from those tested, without regard to their results.

- Cn1c(NCC(O)c2ccc(F)c(F)c2)c(C#N)c(=O)n(C)c1=O (centres unmarked) | CoaBC: 2.362%; TcHisRS: 5.143%
- CCC(C)N(Cc1ccncc1)C(=O)CCSC (centres unmarked) | CoaBC: 2.927%; TcHisRS: -0.9804%
- CC(C)Nc1ncnc2c1CCN(C(=O)[C@H]1CCCO1)CC2 | CoaBC: 0.4706%; TcHisRS: 5.288%
- COc1cccc2c1OCC(NCc1cnn(-c3ccccc3)c1)C2 (centres unmarked) | TcHisRS: -0.6369%
- CN1C[C@@H](n2cnc(-c3ccccc3)c2-c2nccn2C)C[C@H]1C(=O)O | CoaBC: 7.391%; TcHisRS: 4.813%
- COc1cccc2c1OCC(C(=O)N(C)CCCc1cnn(C)c1)C2 (centres unmarked) | CoaBC: -2.772%; TcHisRS: 4.959%
- N#Cc1ccnc(N2CCN(C(=O)NC3CCS(=O)(=O)C3)CC2)c1 (centres unmarked) | CoaBC: 6.071%; TcHisRS: 2.682%
- Cc1csc(C(C)(C)NCCOc2ccc(CC#N)cc2)n1 | CoaBC: 2.187%; TcHisRS: 3.704%
- CCCc1noc(CN2CCN(c3nccs3)CC2)n1 | CoaBC: -0.4779%; TcHisRS: 7.429%
- N#Cc1ccnc(N2CCN(C3CCOC3=O)CC2)c1 (centres unmarked) | CoaBC: 5.449%; TcHisRS: 3.941%
- CN(C)CC(Nc1nc(N)nc2c1CCNCC2)c1ccccc1 (centres unmarked) | CoaBC: -0.3797%; TcHisRS: 9.756%
- COc1ccc(NC(=O)CCNc2ncccn2)cn1 | CoaBC: 3.283%; TcHisRS: 0.5848%
- Cc1n[nH]c(C)c1-c1cnc(CC2CCN(C(C)C)CC2)cn1 | CoaBC: 6.083%; TcHisRS: 5.224%
- CCc1nnc(CN(C)c2nccc(N3CCCC(O)C3)n2)o1 (centres unmarked) | CoaBC: 7.654%; TcHisRS: 8.458%
- O=c1cc(N2CCCCC2)cnn1CC(O)C(F)(F)F (centres unmarked) | CoaBC: 1.01%; TcHisRS: 3.03%
- c1ccc(OCc2nnc3n2CCN(CC2CC2)C3)nc1 | CoaBC: 2.941%; TcHisRS: 12.4%
- CCC(C)(C)NC(=O)C1CC(=O)N(CC2CC2)C1 (centres unmarked) | CoaBC: 2.698%; TcHisRS: 1.149%
- CN(C)C(=O)CN1C[C@@H]2CC[C@H](C1)N(Cc1ccc(Cl)cc1Cl)C2 | CoaBC: -3.171%; TcHisRS: 7.843%
- Clc1cccc(Cl)c1CNCCOc1ccccn1 | CoaBC: -7.292%; TcHisRS: 11.92%
- CSCC[C@H](NC(=O)Cn1ccc2c(Br)cccc21)C(=O)O | CoaBC: 2.273%; TcHisRS: 6.433%
- COC(=O)c1cccc(C(=O)N2CCN(C(=O)N(C)C)CC2(C)C)c1 | CoaBC: 1.901%; TcHisRS: 1.293%
- Cc1cc(C)n(-c2cncc(N3CCN(C(=O)CN(C)C)CC3)n2)n1 | CoaBC: -21.43%; TcHisRS: 8.621%
- Cc1noc(Cl)c1CCC(=O)N1CCC(CC(N)=O)CC1 | CoaBC: 12.52%; TcHisRS: -8.333%
- CC(=O)c1ccccc1NC(=O)CCN1CCSCC1 | CoaBC: -2.288%; TcHisRS: 9.392%
- Nc1ncccc1C(=O)NCc1cccc(Br)c1 | CoaBC: 1.053%; TcHisRS: -2.959%
- CN(C)S(=O)(=O)N1CCC(Oc2cnccn2)CC1 | CoaBC: 0.8872%; TcHisRS: 4.348%
- CCNc1ccnc(N2Cc3cnc(CC(C)C)nc3C2)n1 | CoaBC: 0.7371%; TcHisRS: -1.235%
- O=C(c1cc(Br)ccc1-n1cnnn1)N1CCCC1 | CoaBC: -1.937%; TcHisRS: 10%
- Cc1nn(C)c(Cl)c1CN1CCN(c2nccs2)C(C)C1 (centres unmarked) | CoaBC: 1.01%; TcHisRS: 6.433%
- Cc1cccc(CN2CCCn3c(nnc3Cn3cccn3)C2)n1 | CoaBC: 9.13%; TcHisRS: -4%
- COCCN1CCC(NC(=O)C(C)C)CC1 | CoaBC: -0.3636%; TcHisRS: 2.041%
- CCCn1cc(C(=O)NC2CCN(CC(=O)NC3CC3)CC2)c(C)n1 | CoaBC: 1.568%; TcHisRS: 3.518%
- Cc1ccccc1Cc1cnc(NC(=O)C2CNC(=O)N2)s1 (centres unmarked) | CoaBC: -1.305%; TcHisRS: 6.391%
- O=C1CCC(CCC(=O)N2CCC2c2cccs2)=NN1 (centres unmarked) | CoaBC: -3.215%; TcHisRS: 4.103%
- COc1ccc(C(C(=O)O)N2CCC(Cn3cccn3)CC2)cc1F (centres unmarked) | CoaBC: -0.3802%; TcHisRS: -7.328%
- CCOCCOc1ccccc1C(=O)N1C[C@H](C2CC2)[C@@H](N)C1 | CoaBC: -0.3727%; TcHisRS: -4.831%
- COc1ccc(CN[C@@H]2CO[C@H](CNC(=O)NC(C)C)[C@H]2O)cc1 | CoaBC: 9.032%; TcHisRS: 1.493%
- CC(C)n1ncc2c1NC(=O)CSC2C(F)(F)F (centres unmarked) | CoaBC: 2.525%; TcHisRS: 4.094%
- COc1cccc(OCC2CCCN(C(=O)CCc3cc(O)no3)C2)c1 (centres unmarked) | CoaBC: 3.426%; TcHisRS: 2.97%
- COC(=O)c1ccc(NC(C)c2ccc3c(c2)NC(=O)CO3)nn1 (centres unmarked) | CoaBC: 6.061%; TcHisRS: 14.14%
- Cc1ccc(N2CC[C@H]3O[C@@H](C(=O)N4CCCO4)CC[C@H]32)nn1 | CoaBC: 1.22%; TcHisRS: 8.889%
- Cc1cncc(C(=O)N2CCC3(CC2)C(=O)Nc2ccccc23)c1 | CoaBC: 11.21%; TcHisRS: 2.174%

2 of the entries, repeated:

- CN(C)CC(Nc1nc(N)nc2c1CCNCC2)c1ccccc1 (centres unmarked) | CoaBC: -0.3797%; TcHisRS: 9.756%
- CCc1nnc(CN(C)c2nccc(N3CCCC(O)C3)n2)o1 (centres unmarked) | CoaBC: 7.654%; TcHisRS: 8.458%